# Values from PubChem BioAssay AID1259405 (NCATS, 2018).
# Test: 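Mouse-designed siRNAs used to find CHO productivity engineering targets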 (primary screen)
# System: Chinese hamster CHO-K1 ovary cells with stable secreted eGFP expression
# Reagents: single siRNA against mouse genes, 0.8 pmol siRNA per well (2 µl of 400 nM stock)
# Timing: 3 days
# Measurement: 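Percent of the per-plate non-targeting control median for intracellular GFP per well by laser scanning cytometry and for cell viability by ATP luminescence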
# Reading the numbers: GFP, % of control: higher = more GFP per well, higher productivity; viability (ATP), % of control: higher = more viable cells (more ATP)
# Call rule: 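a knock-down is called active if GFP reaches 120% or more of non-targeting control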
# In all, the deposit lists about 50,000 reagents; shown is a part drawn at random. About 4,000 of all reagents (8%) were called active. 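Mouse siRNA library applied to hamster cells; one well for each siRNA.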 A number with no mark means an inactive call. Reagents against one gene are numbered here.
target gene,reagent,"GFP, % of control","viability (ATP), % of control"
Lctl (lactase-like),1,96.4,107
Lctl (lactase-like),2,45.7,85.8
Lctl (lactase-like),3,66.4,74
"Ets2 (Ets proto-oncogene 2, transcription factor)",1,82.6,81.9
"Ets2 (Ets proto-oncogene 2, transcription factor)",2,107,100
"Ets2 (Ets proto-oncogene 2, transcription factor)",3,100,108
Trip4 (thyroid hormone receptor interactor 4),1,84.5,85
Trip4 (thyroid hormone receptor interactor 4),2,73.1,81.5
Trip4 (thyroid hormone receptor interactor 4),3,82.3,87.2
Or5w18 (olfactory receptor family 5 subfamily W member 18),1,13.6,13.4
Or5w18 (olfactory receptor family 5 subfamily W member 18),2,75.4,57.4
Or5w18 (olfactory receptor family 5 subfamily W member 18),3,87.4,67.9
Or1l8 (olfactory receptor family 1 subfamily L member 8),1,142 (active),101
Or1l8 (olfactory receptor family 1 subfamily L member 8),2,76.7,68.1
Or1l8 (olfactory receptor family 1 subfamily L member 8),3,135 (active),92.1
Ube2o (ubiquitin-conjugating enzyme E2O),1,82.9,89.9
Ube2o (ubiquitin-conjugating enzyme E2O),2,105,131
Ube2o (ubiquitin-conjugating enzyme E2O),3,62.6,143
"Cyp1a2 (cytochrome P450, family 1, subfamily a, polypeptide 2)",1,65.4,67.7
"Cyp1a2 (cytochrome P450, family 1, subfamily a, polypeptide 2)",2,54.7,67.3
"Cyp1a2 (cytochrome P450, family 1, subfamily a, polypeptide 2)",3,56.5,42.9
"Dnttip1 (deoxynucleotidyltransferase, terminal, interacting protein 1)",1,61.6,56.2
"Dnttip1 (deoxynucleotidyltransferase, terminal, interacting protein 1)",2,131 (active),99
"Vmn1r190-ps (vomeronasal 1 receptor 190, pseudogene)",1,101,55.3
"Vmn1r190-ps (vomeronasal 1 receptor 190, pseudogene)",2,119,72.6
"Vmn1r190-ps (vomeronasal 1 receptor 190, pseudogene)",3,74.5,87.7
Fbxw10 (F-box and WD-40 domain protein 10),1,42.1,52.2
Fbxw10 (F-box and WD-40 domain protein 10),2,73.8,41.8
Fbxw10 (F-box and WD-40 domain protein 10),3,58.5,55.7
"H2-M9 (histocompatibility 2, M region locus 9)",1,54.9,63
"H2-M9 (histocompatibility 2, M region locus 9)",2,87.9,76.3
"H2-M9 (histocompatibility 2, M region locus 9)",3,73,75.2
Tyro3 (TYRO3 protein tyrosine kinase 3),1,83.6,78.4
Tyro3 (TYRO3 protein tyrosine kinase 3),2,76.8,77.2
Tyro3 (TYRO3 protein tyrosine kinase 3),3,72.6,76.2
Tmco6 (transmembrane and coiled-coil domains 6),1,22.8,29.4
Tmco6 (transmembrane and coiled-coil domains 6),2,64.5,60.7
Tmco6 (transmembrane and coiled-coil domains 6),3,92.2,55.8
Ctsg (cathepsin G),1,96.2,110
Ctsg (cathepsin G),2,62,32.4
Ctsg (cathepsin G),3,99.5,82.5
Dip2c (disco interacting protein 2 homolog C),1,50.3,59.3
Dip2c (disco interacting protein 2 homolog C),2,41.2,46.5
Dip2c (disco interacting protein 2 homolog C),3,72.4,59.1
Rims2 (regulating synaptic membrane exocytosis 2),1,88.9,87.4
Rims2 (regulating synaptic membrane exocytosis 2),2,88,76.3
Rims2 (regulating synaptic membrane exocytosis 2),3,57.1,55.7
Or8g37 (olfactory receptor family 8 subfamily G member 37),1,61.5,63.8
Or8g37 (olfactory receptor family 8 subfamily G member 37),2,25.4,19.2
Or8g37 (olfactory receptor family 8 subfamily G member 37),3,48.4,56.8
Lrrc42 (leucine rich repeat containing 42),1,87.4,65.9
Lrrc42 (leucine rich repeat containing 42),2,83.9,86.2
Lrrc42 (leucine rich repeat containing 42),3,78.2,84.1
Prrt3 (proline-rich transmembrane protein 3),1,76.4,71.4
Prrt3 (proline-rich transmembrane protein 3),2,78.9,60.4
Prrt3 (proline-rich transmembrane protein 3),3,108,59.2
"Prl2c5 (prolactin family 2, subfamily c, member 5)",1,63.2,63.6
"Prl2c5 (prolactin family 2, subfamily c, member 5)",2,54.5,45.5
"Prl2c5 (prolactin family 2, subfamily c, member 5)",3,52.2,39.1

Entries listed so far whose target name begins with H or h:
target gene,reagent,"GFP, % of control","viability (ATP), % of control"
"H2-M9 (histocompatibility 2, M region locus 9)",1,54.9,63
"H2-M9 (histocompatibility 2, M region locus 9)",2,87.9,76.3
"H2-M9 (histocompatibility 2, M region locus 9)",3,73,75.2
